Test results reported in paper PMC5344305.
These are yes or no findings as the source states them, for the method shown. In cells and extracts the contact can be indirect.

Molecular target: T1, palmitoyl-protein thioesterase-1 (PPT1) (human (endogenous in HEK-293)) (UniProt P50897)
T1 sequence: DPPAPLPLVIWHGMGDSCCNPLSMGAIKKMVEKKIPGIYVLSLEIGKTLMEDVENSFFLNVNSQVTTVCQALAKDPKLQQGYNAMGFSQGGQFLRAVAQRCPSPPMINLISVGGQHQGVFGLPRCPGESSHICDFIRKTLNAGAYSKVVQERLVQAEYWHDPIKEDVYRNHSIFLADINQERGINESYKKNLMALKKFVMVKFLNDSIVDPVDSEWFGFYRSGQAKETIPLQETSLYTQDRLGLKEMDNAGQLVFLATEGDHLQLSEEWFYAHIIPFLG
Assay: co-IP; HEK-293 cells transfected with tagged V0a1 constructs, lysed in RIPA buffer, diluted in PBS with 0.5% NP-40; AP-2, AP-3 or PPT1 antibody overnight at 4 °C, TrueBlot IP beads, western blot; called pull-down by the paper

binding: no binding
Substance: FLAG-tagged V0a1 C25A mutant
